# Taken from: PubChem BioAssay AID504793 (Drosophila RNAi Screening Center, 2011)
# Purpose: 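Knock-downs allowing continued mitosis even though DNA is damaged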 (primary screen)
# System: Drosophila S2R+ cells
# Reagent: long dsRNA against Drosophila genes, about 0.25 µg dsRNA per well
# Timing: 4 days of dsRNA, then 4 hours of drug before read-out
# Challenge: doxorubicin 0.5 µM for 4 hours to cause double-strand breaks, in cells also given a low, harmless dose of dsRNA against nbs to sensitise the assay
# Read-out: 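Mitotic index as the number of phospho-histone H3-positive cells in each well following doxorubicin, given as raw counts without normalisation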
# Reading the numbers: mitotic cells: higher = more cells in mitosis, weaker G2 arrest
# Hit rule: 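Genes are called active only when high mitotic counts were reproduced with independent dsRNAs and mitosis was checked for delay without damage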
# Calls: active = confirmed in follow-up tests; inactive = not confirmed
# The deposit covers about 23,000 reagents; this is a random part of those with a known target gene and a result. Over the whole deposit, 62 (0.27%) were called active. 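Calls come from follow-up tests whose scores are not deposited, so confirmed genes may have low counts here; counts are not normalised per plate.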 The raw values are shown without normalisation. Names joined by + are all predicted targets of the reagent.
Gene,dsRNA,"mitotic cells, replicate 1","mitotic cells, replicate 2",Call
CG6171,DRSC15982,4,,inactive
CG6479,DRSC10647,,,inactive
GstE7,DRSC06677,11,,inactive
HemK2 + Snapin,DRSC00736,2,,inactive
CG13502,DRSC04147,4,,inactive
CG13502,DRSC26374,10,,inactive
Atg10 + CG12822,DRSC06796,7,,inactive
t-Grip128,DRSC07853,13,,inactive
t-Grip128,DRSC26796,7,,inactive
KP78a + KP78b,DRSC16721,4,,inactive
KP78a + KP78b,DRSC16722,3,,inactive
CG11841,DRSC14399,3,,inactive
CG11841,DRSC28256,6,,inactive
Evi5,DRSC19421,4,,inactive
Evi5,DRSC27334,4,,inactive
Gad1,DRSC08661,10,,inactive
Gad1,DRSC27052,3,,inactive
in,DRSC11888,4,,inactive
CG12219,DRSC17829,7,,inactive
CG12219,DRSC24690,6,,inactive
Kyat,DRSC16147,5,,inactive
ics,DRSC01878,2,,inactive
ics,DRSC29655,7,,inactive
bip1,DRSC11327,5,,inactive
CG7382,DRSC03052,8,,inactive
CG7382,DRSC27512,3,,inactive
dyl,DRSC08466,5,,inactive
dyl,DRSC08467,3,,inactive
dyl,DRSC24188,2,,inactive
CG16852,DRSC01876,3,,inactive
prod,DRSC07667,5,,inactive
prod,DRSC25498,6,,inactive
CG8117,DRSC20082,10,,inactive
CG8117,DRSC27713,5,,inactive
Ir56b,DRSC06543,3,,inactive
Ir56b,DRSC28758,3,,inactive
cato,DRSC07589,8,,inactive
Ric,DRSC07532,5,,inactive
Ric,DRSC26601,7,,inactive
CG11413 + CG4622,DRSC04109,7,,inactive
CG11413 + CG4622,DRSC26158,10,,inactive
Obp83b,DRSC12360,3,,inactive
Obp83b,DRSC25688,5,,inactive
Cyp28c1,DRSC20236,3,,inactive
CG12470,DRSC18620,9,,inactive
CG1116,DRSC12166,5,,inactive
Gr59d,DRSC22553,11,,inactive
teq,DRSC10298,8,,inactive
teq,DRSC11301,5,,inactive
teq,DRSC11302,5,,inactive
CG17230,DRSC15203,4,,inactive
CG17230,DRSC27268,9,,inactive
p,DRSC16560,4,,inactive
p,DRSC27891,1,,inactive
CG17721,DRSC15253,9,,inactive
CG13442,DRSC06402,9,,inactive
CG13442,DRSC25909,5,,inactive
CG12493,DRSC08279,8,,inactive
CG12493,DRSC25535,7,,inactive
CG8517,DRSC07205,3,,inactive
Boh2,DRSC02777,2,,inactive
CG10916,DRSC06012,2,,inactive
CG33333,DRSC13233,6,,inactive
Myo10A,DRSC19834,8,,inactive
Myo10A,DRSC19837,14,,inactive
CG11597,DRSC09847,6,,inactive
rl,DRSC07833,4,,inactive
rl,DRSC20742,21,,inactive
rl,DRSC21814,6,,inactive
CG8172,DRSC07089,14,,inactive
CG8172,DRSC22113,5,,inactive
CG8172,DRSC25604,7,,inactive
CG11226,DRSC11639,5,,inactive
CG13042,DRSC09923,5,,inactive
CG13042,DRSC28618,11,,inactive
CG32668,DRSC18879,2,,inactive
sa,DRSC11649,5,5,inactive
CG14325,DRSC14804,12,,inactive
Hex-t2,DRSC22517,8,,inactive
Hex-t2,DRSC28247,,,inactive
Dpy-30L2,DRSC08205,5,,inactive
Dpy-30L2,DRSC25695,8,,inactive
Nrt,DRSC11237,1,,inactive
CG14354,DRSC14817,6,,inactive
CG9330,DRSC11066,9,,inactive
CG9330,DRSC29449,2,,inactive
Octbeta3R,DRSC15351,5,,inactive
Octbeta3R,DRSC16191,6,,inactive
Octbeta3R,DRSC21853,4,,inactive
Octbeta3R,DRSC21902,11,,inactive
Octbeta3R,DRSC22350,4,,inactive
Octbeta3R,DRSC24019,9,,inactive
Octbeta3R,DRSC25327,5,,inactive
Octbeta3R,DRSC26889,5,,inactive
CG43996,DRSC19456,7,,inactive
CG43996,DRSC19457,8,,inactive
Or98a,DRSC16774,13,,inactive
Or98a,DRSC26173,3,,inactive
CG7906,DRSC10928,,,inactive
CG7906,DRSC29526,5,,inactive
CG34174,DRSC00101,7,,inactive
Osbp,DRSC16779,7,,inactive
bft (retired record),DRSC21354,12,,inactive
bft (retired record),DRSC29259,2,,inactive
aus,DRSC13471,5,,inactive
aus,DRSC13473,13,,inactive
aus,DRSC15157,8,,inactive
aus,DRSC26783,3,,inactive
CG33969,DRSC11777,8,,inactive
bc10,DRSC11326,7,,inactive
